Construct, isoform or probe ends are uncertain for at least one entry. At least one result comes from cells or an extract, where the contact may be indirect.

For data set [1], the target named is T1, propionyl-CoA carboxylase subunit alpha (PCCA) (UniProt A0A8I3S647). Nature of the data set: pull-down (streptavidin beads, western blot). To be noted: 50 nM aptamer, WT lysate, bound equally well as from K-RasV12 lysate; tryptamino-dU (trp-dU) replaces dT in the extended part (after the 20-nt forward primer); primer has normal dT; Pull-down: 100 uL MDCK lysate, 50 nM renatured 5'-biotinylated aptamer, 0.75% dextran sulfate, 4 uM competitor in 200 uL PBSMN buffer, 10 min at 25 C; protein in an extract; label: 5' biotin; synthetic backbone; letters put together from the description. (In general: In western blotting, separated proteins are transferred to a membrane and probed.)

Data set [2] concerns the target T1, propionyl-CoA carboxylase subunit alpha (PCCA). Nature of the data set: pull-down (streptavidin beads, LC-MS and western blot). The conditions noted are these: 50 nM aptamer, 0.75% dextran sulfate, 4 uM competitor, K-RasV12 lysate, tryptamino-dU (trp-dU) replaces dT in the extended part (after the 20-nt forward primer), primer has normal dT, Pull-down: 100 uL MDCK lysate, 50 nM renatured 5'-biotinylated aptamer, 4 uM competitor in 200 uL PBSMN buffer, 10 min at 25 C, protein in an extract, label: 5' biotin, synthetic backbone, letters put together from the description.

Take “GGGAGATCACTTACGGCACCGCGGCTCGTGGGTCTACGTGGCCGAGAGGACGAGGGGGCTGCCCCAAGGCACGGGTCAG [ABN-01]”: the binding result in data set [1] and in data set [2] was “binds” throughout.

The values above are taken from PMC12541808.
